From PubChem BioAssay AID540303 (National Center for Advancing Translational Sciences (NCATS), 2011)
In all, about 330,000 compounds went through this assay and about 1,000 (0.3%) were called active. The inconclusive results got no clear call from the source; some entries with a clear call stand among them for comparison. The call rests on the fitted dose curve; in most records, active means well fitted inhibition curve with a large enough effect; inconclusive means small, poorly fitted or top-dose-only effect; inactive means no such curve, though single readings can be large or run the other way; tested in mouse RAW 264.7 cells. Where the call is inconclusive, the potency comes from a doubtful curve fit.

Test: qHTS for Inhibitors of Cell Surface uPA Generation; further: nearly all actives have a fitted effect of over 55% in size
Conditions: cell surface uPA generation assay; series mostly up to 38.3 µM
Procedure, shortened: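 RAW 264.7 cells, 4000/well, given compound (1:5 dilutions, up to 38.3 uM final) and incubated 24 h at 37 C. Blocked uPA-dependent LF entry keeps ATP high; ATPlite luminescence read, 5 s exposure.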
Potency means the concentration at half of the fitted maximal effect.

Compound	Potency
Cc1ccc(NC(=O)Cc2ccc(Cl)c(Cl)c2)cc1S(=O)(=O)N(C)C	inactive
COc1ccc(S(=O)(=O)N2CCCCCC2)cc1N(C)S(=O)(=O)c1ccc(C)cc1	inconclusive: 31.6 µM [inhibitor, partial curve, poor fit]
CC1CCN(S(=O)(=O)c2ccc3c(c2)CCN3C(=O)C2CCC2)CC1	inactive
CCOc1ccc(-c2c(C(=O)N/N=C/c3ccc(C)o3)nnn2-c2nonc2N)cc1	inactive
CC(C)CC1Nc2ncnc(N3CCCCC3)c2N(Cc2ccc(Br)cc2)C1=O (centres undefined)	inconclusive: 12.6 µM [inhibitor, single point]
CCCN1CCC(=O)N([C@H](CSc2ccc(C)cc2)CC(C)C)CC1	inconclusive: 10 µM [inhibitor, single point]
CCOCCCNC(=O)c1cc2c(=O)n(CC)c3ccccc3c2s1	inconclusive: 12.6 µM [inhibitor, single point]
Cc1cccc(-c2ccc3c(c2)C2CC3CCN2Cc2ccc3c(c2)OCO3)c1 (centres undefined)	inactive
C=CCOc1c(Cl)cc(CNc2nccs2)cc1OC	inactive
COc1cc(Br)c(CNc2cc(C)ccc2C)cc1OC	inconclusive: 6.31 µM [inhibitor, single point]
CCOC(=O)N1CCN(S(=O)(=O)c2ccc(C(=O)Nc3sc4c(c3C(N)=O)CCN(CC)C4)cc2)CC1	inactive
CC1CCCC(NC(=O)NC(=O)CCl)C1C (centres undefined)	inconclusive: 8.91 µM [inhibitor, partial curve, poor fit]
CCN1CCN(c2ccc(Cl)cc2NC(=O)c2ccco2)CC1	inconclusive: 1.58 µM [inhibitor, full curve, poor fit]
Cc1cccc(Cn2c(O)c(N=NC(=S)Nc3ccccc3F)c3ccccc32)c1	inconclusive: 2.82 µM [inhibitor, partial curve, poor fit]
COCc1cc(CN2CCCC2)c(O)c2ncccc12	inconclusive: 7.08 µM [inhibitor, single point]
CCc1ccccc1Nc1nc(N)nc(COC(=O)c2c(C)noc2C)n1	inconclusive: 3.16 µM [inhibitor, partial curve, poor fit]
O=C(Nc1cc(S(=O)(=O)N2CCCCC2)ccc1O)c1ccccc1NS(=O)(=O)c1ccc(F)cc1	inactive
COc1cc(CNCc2ccc(OC)c3ccccc23)cc(OC)c1OC	inconclusive: 28.2 µM [inhibitor, single point]
CC(OC(=O)Cc1n[nH]c(=O)c2ccccc12)C(=O)Nc1ccc(F)cc1Cl (centres undefined)	inactive
CC(=O)N1N=C(c2c(-c3ccccc3)c3cc(Br)ccc3[nH]c2=O)CC1c1ccco1 (centres undefined)	inconclusive: 12.6 µM [inhibitor, single point]
Cn1c(=O)c2c(SCc3ccccn3)nc(CC(C)(C)C)nc2n(C)c1=O	inconclusive: 2 µM [inhibitor, partial curve, poor fit]
COc1ccc(C(CNC(=O)c2ccc(S(=O)(=O)N3CC(C)CC(C)C3)cc2)N(C)C)cc1 (centres undefined)	inconclusive: 8.91 µM [inhibitor, partial curve, poor fit]

Gathered by group: the compounds so far with a Cl atom (five)
Compound	Potency
Cc1ccc(NC(=O)Cc2ccc(Cl)c(Cl)c2)cc1S(=O)(=O)N(C)C	inactive
C=CCOc1c(Cl)cc(CNc2nccs2)cc1OC	inactive
CC1CCCC(NC(=O)NC(=O)CCl)C1C (centres undefined)	inconclusive: 8.91 µM [inhibitor, partial curve, poor fit]
CCN1CCN(c2ccc(Cl)cc2NC(=O)c2ccco2)CC1	inconclusive: 1.58 µM [inhibitor, full curve, poor fit]
CC(OC(=O)Cc1n[nH]c(=O)c2ccccc12)C(=O)Nc1ccc(F)cc1Cl (centres undefined)	inactive

Carrying on:

Compound	Potency
COc1ccc(OCCOC(=O)CN2C(=O)NC3(CCCC3)C2=O)cc1	inconclusive: 17.8 µM [inhibitor, partial curve, poor fit]
O=C(OCCOc1ccccc1)c1n[nH]c2ccccc12	inactive
O=C(/C(=C/c1ccncc1)n1ccnc1)c1ccc(Cl)cc1Cl	inactive
O=C(N/N=C/c1sc(N2CCOCC2)nc1-c1ccccc1)c1cccc(S(=O)(=O)N2CCOCC2)c1	inconclusive: 2.51 µM [inhibitor, partial curve, poor fit]
Cc1ccc(S(=O)(=O)N2[C@@H](c3ccc(C(C)(C)C)cc3)C(C(=O)O)=CC[C@H]2c2ccc(C(C)C)cc2)cc1	inconclusive: 22.4 µM [inhibitor, partial curve, poor fit]
C(=C\c1ccccc1)/C=N/Nc1nc2ccccc2[nH]1	active: 3.98 µM
CCOc1ccc(Br)cc1S(=O)(=O)Nc1cccc(S(=O)(=O)Nc2ccccc2C(=O)O)c1	inconclusive: 12.6 µM [inhibitor, partial curve, poor fit]
CC(C)CC(=O)NC(c1ccccc1Cl)c1c(O)ccc2ccccc12 (centres undefined)	inactive
COc1ccc(C(=O)NCc2nnc(SCC(=O)Nc3nnc(C)s3)o2)cc1	inconclusive: 1 µM [inhibitor, single point]
Cc1cc(N2CCCC2=O)ccc1S(=O)(=O)NC1CCCCC1	inactive
COc1cc(C(=O)NCCC(=O)NC(C)C)cc(OC)c1OC	inactive
O=C(/C=C/c1cccc(Cl)c1)c1ccc([N+](=O)[O-])o1	inconclusive: 1.58 µM [inhibitor, full curve, poor fit]
COc1ccc(/C=N/NC(=O)CCn2cnc(-c3ccccc3)c2-c2ccccc2)cc1	active: 1.12 µM
O=[N+]([O-])c1ccc(-n2cc(-c3ccccc3)nn2)cc1	inconclusive: 1.26 µM [inhibitor, partial curve, poor fit]
COC(=O)c1sccc1NC(=O)Nc1cccc(Cl)c1Cl	inactive
O=C(NOCc1ccccc1)c1ccc(Cl)cc1	inconclusive: 11.2 µM [inhibitor, partial curve, poor fit]
C=CCNc1oc(-c2ccc(-c3ccccc3)cc2)nc1C#N	inconclusive: 28.2 µM [inhibitor, single point]
O=C(O)C(c1ccccc1)N1C(=O)/C(=C/c2cccs2)SC1=S (centres undefined)	inactive
COc1cc(C(=O)O/N=C2\C=CC(=O)C=C2C)cc(OC)c1OC	inconclusive: 3.55 µM [inhibitor, partial curve, poor fit]
COc1cccc2sc(N(CCCN(C)C)C(=O)CCS(=O)(=O)c3ccccc3)nc12	inconclusive: 11.2 µM [inhibitor, partial curve, poor fit]
CCC(=O)N1CCN(c2ccc(NC(=O)COc3ccccc3[N+](=O)[O-])cc2)CC1	inactive
Cc1cccc(-c2n[nH]c(=S)n2C)c1	inactive
